Experimental data taken from EP2899531B1, “Method for detecting a chiral analytes” (Jacobs University Bremen gGmbH, priority 2013, dated 2015).
At least one peptide structure holds a part that was inferred or is arguable (an end, a ring closure or a residue).

Assays:
CB8-MDPP = test: Binding constants of chiral analytes with CB8-MDPP receptor complex, UV/Vis titration; conditions: CB8-MDPP (20 µM), H2O, 22 °C; from UV/Vis titrations, estimated error ≤ 10%
Source text: (§1) Bindungskonstanten zwischen CB8-Farbstoff-Komplexen und den in Tabelle 1 aufgeführten Analyten wurden mittels UV/Vis-Titration in H2O, sofern nicht anders angegeben, durchgeführt. Zu einer Lösung aus dem CB8-Farbstoff-Rezeptor wurde schrittweise eine Lösung des Analyten gegeben, und die UV/Vis-Spektren wurden aufgezeichnet. Die normalisierte Absorption bei 419 nm (CB8-MDAP) oder bei 443 nm (CB8-MDPP) wurde mit einer Gleichung für eine 1:1-Bindung mittels der Kleinstquadratmethode angepasst ([50]).

CB8-MDAP = test: Binding constants of chiral analytes with CB8-MDAP receptor complex, UV/Vis titration; conditions: CB8-MDAP (100 µM), H2O, 22 °C; from UV/Vis titrations, estimated error ≤ 10%
Source text: as §1

## C[C@H](N)C(=O)N[C@@H](Cc1ccccc1)C(=O)O [AlaPhe]
CB8-MDPP
  Ka: 7 10^3 M^-1
CB8-MDAP
  Ka: 0.5 10^3 M^-1
